{"source": "paper PMC10163288", "binders": {"B1": {"name": "il10ra_site1_sap_23_mot_HHH_b1_02809_af2_000000277_0001_40_57_H_._HHH_b1_02459_0001_0000100004_0000001_0_0001_af2pred_0001 (protein)", "chain": "SSSSSSSERREVRELIREALHIDDEEERRQVLEEALRLAEELGNLLLEIAARFALKRSSSSSSSS"}, "B2": {"name": "il10ra_site1_normal_mot_HHH_b1_05860_000000142_0001_1_19_H_._HHH_b2_06708_af2_0001_0000300028_0000001_0 (protein)", "chain": "SSSSDEAAEEVYRLLRELAELHDEGDEEEFERLAERIEELIRELGNRLLEFNLRHLQRQLSSSSS"}, "B3": {"name": "il10ra_site1_sap_8_mot_HHH_b2_00277_af2_000000172_0001_1_17_H_._HHH_b2_05601_0001_0000200007_0000001_0_0001 (protein)", "chain": "SSSSSSAHELYELSRRVAELRARGNPEEARELVREAIELAEELNNRVMLHNLRMLLEQLESSSSS"}, "B4": {"name": "il10ra_site1_normal_mot_HHH_b2_07440_af2_000000021_0001_1_18_H_._HHH_b1_03012_af2_0001_0000500014_0000002_0 (protein)", "chain": "SSSSDEEKQEALELSLEAFRLALRGNEEEAKKVLEEAERLLEELGDPRALRIVRSLLQALSSSSS"}, "B5": {"name": "il10ra_site1_normal_mot_HHH_b2_04680_000000215_0001_1_16_H_._HHH_b2_02011_af2_0001_0000300016_0000001_0 (protein)", "chain": "SSSSSSSEENREAYELLREAFHIEDPEEVRELLEEALELAREIGNFALVFAIELALKQLSSSSSS"}, "B6": {"name": "il10ra_site1_sap_18_mot_HHH_b2_00277_af2_000000172_0001_1_17_H_._HHH_b2_02521_0001_0000400007_0000002_0_0001 (protein)", "chain": "SSSSDEEERLEELLEEAEELLEKGDKERLLRVLLEALQLAYQLGDEEVLQRLWELLERARSSSSS"}, "B7": {"name": "il10ra_site1_normal_mot_HHH_b2_02337_000000026_0001_38_52_H_._HHH_b1_02776_0001_0000300029_0000001_1 (protein)", "chain": "SSSSDLEEEIEELLKELEELIKEGDQERISELAQRILRLIAEAQNAELLRELWRLVQEFYSSSSS"}, "B8": {"name": "il10ra_site1_sap_27_mot_HHH_b1_02665_000000293_0001_1_18_H_._HHH_b2_00293_0001_0000200009_0000001_0_0001 (protein)", "chain": "SSSSDEEELRRQAEELLEEAEELSKRDPEKASRVAAKAVRIALRANDEELLQEIWEFVKRLSSSS"}, "B9": {"name": "il10ra_site1_sap_24_mot_39ab2cb694c8b9c1dc7e65c0d672c93e_0001_000000036_0001_53_65_H_._HHH_b2_00700_af2_0001_0000200009_0000001_0_0001 (protein)", "chain": "SSSSDKELRRRAYELSREIVELASEGDEERAEELLREVEEIAEEANSKLMEFIVEILKRDLSSSS"}, "B10": {"name": "il10ra_site1_sap_27_mot_HHH_b2_08186_000000021_0001_43_56_H_._HHH_b1_07279_0001_0000600053_0000001_0_0001 (protein)", "chain": "SSSSSDYEERVRELLEEAEELAEEGDPEKAVKLAQEAVRAAFQAKDPELLRLVFRVARKLSSSSS"}, "B11": {"name": "il10ra_site1_sap_15_mot_65b8060e20531850bca9f2e11f97d954_0001_af2_000000137_0001_17_31_H_._HHH_b1_04696_0001_0000500012_0000001_0_0001 (protein)", "chain": "SSSSSTEEVMKLIREAAELIQQGNEEEAREVLEEARELAEEENNWALRWAIRHLERDLNSSSSSS"}, "B12": {"name": "il10ra_site1_sap_19_mot_HHH_b2_01705_af2_000000069_0001_44_57_H_._HHH_b1_08772_af2_0001_0000100001_0000001_0_0001 (protein)", "chain": "SSSSDEEELERLLEELKELIEEGDREEALRLMKEILHLAFRLSDPEAFHILMRLAEELKNSSSSS"}, "B13": {"name": "il10ra_site1_sap_25_mot_HHH_b1_06256_000000091_0001_42_58_H_._HHH_b1_02304_0001_0000400033_0000001_0_0001 (protein)", "chain": "SSSSDEVAHELYELLREIAELMAEGDRERAEELLEEAKELAEEHNSPLLFNIRYLEEQVNSSSSS"}, "B14": {"name": "il10ra_site1_sap_11_mot_HHH_b2_00943_af2_000000149_0001_1_17_H_._HHH_b2_04042_0001_0000500018_0000001_0_0001 (protein)", "chain": "SSSSDKYEEIKKAIERIIKLLEEGDRERAEEVLEELEEIVEESGDWAQRFVVELLERDIKASSSS"}, "B15": {"name": "il10ra_site1_normal_mot_HHH_b1_04514_000000156_0001_1_18_H_._2051c93d6f136ab5bac26191f104723f_0001_1_0001_0000400018_0000002_0_af2pred_0001 (protein)", "chain": "DELEEKIREAIEKNDFELLREIIEIIAELRERDPEEAEELVELLLKLARELNDPYVAHSAEALKR"}, "B16": {"name": "il10ra_site1_normal_mot_HHH_b1_01879_000000050_0001_1_18_H_._HHH_b2_02257_0001_0000500017_0000002_0_af2pred_dldesign_0_af2pred (protein)", "chain": "SSSSKKEIEKTVFDALVKAAKEGDWDTVRELATLSRQVKLTKDPELEKKLYELAKSYLEKISSSS"}, "B17": {"name": "il10ra_site1_sap_19_mot_HHH_b1_00666_000000226_0001_43_56_H_._HHH_b1_02217_af2_0001_0000200007_0000002_0_0001 (protein)", "chain": "SSSSSDEEVEELIEQVEELLRQGDPERALQVVYEAVRIAAELGDEELLRRLQELIQEIFGSSSSS"}, "B18": {"name": "il10ra_site1_normal_mot_HHH_b1_03333_000000091_0001_1_17_H_._HHH_b1_05408_0001_0000200031_0000001_0 (protein)", "chain": "SSSSTEEYEEVKEAIEKAVELFRNGDPEEARELLEELLEKLEELGNVAAVFSVEHLARLLSSSSS"}}, "note": "Some of the results follow.", "data": [{"target": "il10ra, Q13651", "assay": "yeast display titration", "values": [{"binder": "B1", "apparent Kd": "inactive: no binding seen"}, {"binder": "B2", "apparent Kd": "inactive: no binding seen"}, {"binder": "B3", "apparent Kd": "inactive: no binding seen"}, {"binder": "B4", "apparent Kd": "inactive: no binding seen"}, {"binder": "B5", "apparent Kd": "inactive: no binding seen"}, {"binder": "B6", "apparent Kd": "inactive: no binding seen"}, {"binder": "B7", "apparent Kd": "inactive: no binding seen"}, {"binder": "B8", "apparent Kd": "inactive: no binding seen"}, {"binder": "B9", "apparent Kd": "inactive: no binding seen"}, {"binder": "B10", "apparent Kd": "inactive: no binding seen"}, {"binder": "B11", "apparent Kd": "inactive: no binding seen"}, {"binder": "B12", "apparent Kd": "inactive: no binding seen"}, {"binder": "B13", "apparent Kd": "inactive: no binding seen"}, {"binder": "B14", "apparent Kd": "inactive: no binding seen"}, {"binder": "B15", "apparent Kd": "inactive: no binding seen"}, {"binder": "B16", "apparent Kd": "inactive: > 859 nM"}, {"binder": "B17", "apparent Kd": "inactive: no binding seen"}, {"binder": "B18", "apparent Kd": "inactive: no binding seen"}]}]}
